# From PMC9475448, “What a difference a methylene makes: replacing Glu with Asp or Aad in the Lys-urea-Glu pharmacophore of PSMA-targeting radioligands to reduce kidney and salivary gland uptake” (Theranostics, 2022)
# What was measured:
# [1] = test system: LNCaP tumor-bearing mice; test: PET/CT imaging of 68Ga-labeled ligands; type: in vivo; conditions: for Visualization of tumor xenografts in PET images: 1 h post-injection
# [2] = test system: LNCaP tumor and major mouse organs/tissues; test: Radiation dosimetry calculation with OLINDA software from biodistribution data; conditions: for Organ doses: 25-g mouse
# From the text: The biodistribution data (available in the Supplemental Table s 5- 6) were used to determine the kinetics input values required by OLINDA. First, each of the values was decayed to its corresponding time point (the values on the table are shown at injection time). Then the different time-points of the uptake data (%IA/g) for each organ were fitted to both mono- exponential ( ) and bi-exponential ( ) functions using in-house software developed in Python. The best fit was selected based on maximizing the coefficient of determination (R2) of the fit and minimizing the residuals. The areas under the curves were analytically calculated based on the parameters obtained from the best fit of each organ and this provided the kinetic input values required by OLINDA.
# In the mouse case, the adrenals, blood, fat, and muscle are not modeled in the phantom. These organs were grouped together and included in what OLINDA calls the remainder of the body .
# Lastly, the numbers of decays in the tumors were also calculated based on the biodistribution data of the mice and the values were inputted into the sphere model available in OLINDA.
# [3] = target organ Remainder of the body
# [4] = target organ Urinary bladder wall
molecule,measurement,setting,value
O=C([O-])CN1CCN(CC(=O)[O-])CCN(CC(=O)NCC2CCC(C(=O)NC(Cc3c4ccccc4cc4ccccc34)C(=O)NCCCCC(NC(=O)NC(CCCC(=O)O)C(=O)O)C(=O)O)CC2)CCN(CC(=O)[O-])CC1.[68Ga+3] (centres unmarked) [[^68Ga]Ga-HTK03149],Visualization of tumor xenografts in PET images,[1],clearly visualized
same,Tumor uptake in PET image with blocking,[1]; co-injection of DCFPyL (0.5 mg),close to the background level
O=C([O-])CN1CCN(CC(=O)[O-])CCN(CC(=O)NCC2CCC(C(=O)NC(Cc3c4ccccc4cc4ccccc34)C(=O)NCCCCC(NC(=O)NC(CC(=O)O)C(=O)O)C(=O)O)CC2)CCN(CC(=O)[O-])CC1.[68Ga+3] (centres unmarked) [[^68Ga]Ga-HTK03161],Visualization of tumor xenografts in PET images,[1],clearly visualized
O=C([O-])CN1CCN(CC(=O)[O-])CCN(CC(=O)NCC2CCC(C(=O)NC(Cc3c4ccccc4cc4ccccc34)C(=O)NCCCCC(NC(=O)NC(CCCC(=O)O)C(=O)O)C(=O)O)CC2)CCN(CC(=O)[O-])CC1.[177Lu+3] (centres unmarked) [[^177Lu]Lu-HTK03149],Decrease in kidney absorbed dose compared to [177Lu]Lu-PSMA-617,[2],70%
same,Increase in tumor-to-kidney absorbed dose ratio compared to [177Lu]Lu-PSMA-617,[2],7.1 fold
same,Increase in tumor absorbed dose compared to [177Lu]Lu-PSMA-617,"[2]; LNCaP tumors, regardless of sphere size",145%
same,Absorbed dose ratio [177Lu]Lu-HTK03149-to-[177Lu]Lu-PSMA-617,"[2]; intestines, stomach, heart, liver, lungs, pancreas, skeleton, spleen, testes and thyroid",1.64 - 10.4
same,Absorbed dose ratio [177Lu]Lu-HTK03149-to-[177Lu]Lu-PSMA-617,[2]; kidneys,0.30
same,"Radiation dose, unit density sphere model for LNCaP tumors",[2]; sphere/tumor volume 0.01 mL,7.53E+04 mGy/MBq
same,"Radiation dose, unit density sphere model for LNCaP tumors",[2]; sphere/tumor volume 0.1 mL,7.87E+03 mGy/MBq
same,"Radiation dose, unit density sphere model for LNCaP tumors",[2]; sphere/tumor volume 0.5 mL,1.60E+03 mGy/MBq
same,"Radiation dose, unit density sphere model for LNCaP tumors",[2]; sphere/tumor volume 1 mL,8.06E+02 mGy/MBq
same,"Radiation dose, unit density sphere model for LNCaP tumors",[2]; sphere/tumor volume 2 mL,4.05E+02 mGy/MBq
same,"Radiation dose, unit density sphere model for LNCaP tumors",[2]; sphere/tumor volume 4 mL,2.03E+02 mGy/MBq
same,"Radiation dose, unit density sphere model for LNCaP tumors",[2]; sphere/tumor volume 6 mL,1.36E+02 mGy/MBq
same,"Radiation dose, unit density sphere model for LNCaP tumors",[2]; sphere/tumor volume 8 mL,1.02E+02 mGy/MBq
same,"Radiation dose, unit density sphere model for LNCaP tumors",[2]; sphere/tumor volume 10 mL,8.17E+01 mGy/MBq
same,"Radiation dose, unit density sphere model for LNCaP tumors",[2]; sphere/tumor volume 20 mL,4.10E+01 mGy/MBq
same,"Radiation dose, unit density sphere model for LNCaP tumors",[2]; sphere/tumor volume 40 mL,2.06E+01 mGy/MBq
same,"Radiation dose, unit density sphere model for LNCaP tumors",[2]; sphere/tumor volume 60 mL,1.37E+01 mGy/MBq
same,"Radiation dose, unit density sphere model for LNCaP tumors",[2]; sphere/tumor volume 80 mL,1.03E+01 mGy/MBq
same,"Radiation dose, unit density sphere model for LNCaP tumors",[2]; sphere/tumor volume 100 mL,8.28E+00 mGy/MBq
same,"Radiation dose, unit density sphere model for LNCaP tumors",[2]; sphere/tumor volume 300 mL,2.79E+00 mGy/MBq
same,"Radiation dose, unit density sphere model for LNCaP tumors",[2]; sphere/tumor volume 400 mL,2.10E+00 mGy/MBq
same,"Radiation dose, unit density sphere model for LNCaP tumors",[2]; sphere/tumor volume 500 mL,1.68E+00 mGy/MBq
same,"Radiation dose, unit density sphere model for LNCaP tumors",[2]; sphere/tumor volume 600 mL,1.40E+00 mGy/MBq
same,"Radiation dose, unit density sphere model for LNCaP tumors",[2]; sphere/tumor volume 1000 mL,8.48E-01 mGy/MBq
same,"Radiation dose, unit density sphere model for LNCaP tumors",[2]; sphere/tumor volume 2000 mL,4.29E-01 mGy/MBq
same,"Radiation dose, unit density sphere model for LNCaP tumors",[2]; sphere/tumor volume 3000 mL,2.88E-01 mGy/MBq
same,"Radiation dose, unit density sphere model for LNCaP tumors",[2]; sphere/tumor volume 4000 mL,2.17E-01 mGy/MBq
same,"Radiation dose, unit density sphere model for LNCaP tumors",[2]; sphere/tumor volume 5000 mL,1.75E-01 mGy/MBq
same,"Radiation dose, unit density sphere model for LNCaP tumors",[2]; sphere/tumor volume 6000 mL,1.46E-01 mGy/MBq
same,Organ doses,[2]; target organ Brain,2.35E+00 mGy/MBq
same,Organ doses,[2]; target organ Heart,9.38E+00 mGy/MBq
same,Organ doses,[2]; target organ Kidneys,6.72E+01 mGy/MBq
same,Organ doses,[2]; target organ Large intestine,1.59E+01 mGy/MBq
same,Organ doses,[2]; target organ Liver,2.09E+01 mGy/MBq
same,Organ doses,[2]; target organ Lungs,1.62E+01 mGy/MBq
same,Organ doses,[2]; target organ Pancreas,7.72E+00 mGy/MBq
same,Organ doses,[2]; [3],8.95E+00 mGy/MBq
same,Organ doses,[2]; target organ Skeleton,7.45E+00 mGy/MBq
same,Organ doses,[2]; target organ Small intestine,1.57E+01 mGy/MBq
same,Organ doses,[2]; target organ Spleen,1.89E+01 mGy/MBq
same,Organ doses,[2]; target organ Stomach wall,1.57E+01 mGy/MBq
same,Organ doses,[2]; target organ Testes,8.72E+00 mGy/MBq
same,Organ doses,[2]; target organ Thyroid,1.29E+01 mGy/MBq
same,Organ doses,[2]; [4],5.84E+02 mGy/MBq
[^177Lu]Lu-PSMA-617,"Radiation dose, unit density sphere model for LNCaP tumors",[2]; sphere/tumor volume 0.01 mL,3.07E+04 mGy/MBq
same,"Radiation dose, unit density sphere model for LNCaP tumors",[2]; sphere/tumor volume 0.1 mL,3.21E+03 mGy/MBq
same,"Radiation dose, unit density sphere model for LNCaP tumors",[2]; sphere/tumor volume 0.5 mL,6.51E+02 mGy/MBq
same,"Radiation dose, unit density sphere model for LNCaP tumors",[2]; sphere/tumor volume 1 mL,3.28E+02 mGy/MBq
same,"Radiation dose, unit density sphere model for LNCaP tumors",[2]; sphere/tumor volume 2 mL,1.65E+02 mGy/MBq
same,"Radiation dose, unit density sphere model for LNCaP tumors",[2]; sphere/tumor volume 4 mL,8.28E+01 mGy/MBq
same,"Radiation dose, unit density sphere model for LNCaP tumors",[2]; sphere/tumor volume 6 mL,5.53E+01 mGy/MBq
same,"Radiation dose, unit density sphere model for LNCaP tumors",[2]; sphere/tumor volume 8 mL,4.15E+01 mGy/MBq
same,"Radiation dose, unit density sphere model for LNCaP tumors",[2]; sphere/tumor volume 10 mL,3.33E+01 mGy/MBq
same,"Radiation dose, unit density sphere model for LNCaP tumors",[2]; sphere/tumor volume 20 mL,1.67E+01 mGy/MBq
same,"Radiation dose, unit density sphere model for LNCaP tumors",[2]; sphere/tumor volume 40 mL,8.38E+00 mGy/MBq
same,"Radiation dose, unit density sphere model for LNCaP tumors",[2]; sphere/tumor volume 60 mL,5.60E+00 mGy/MBq
same,"Radiation dose, unit density sphere model for LNCaP tumors",[2]; sphere/tumor volume 80 mL,4.21E+00 mGy/MBq
same,"Radiation dose, unit density sphere model for LNCaP tumors",[2]; sphere/tumor volume 100 mL,3.37E+00 mGy/MBq
same,"Radiation dose, unit density sphere model for LNCaP tumors",[2]; sphere/tumor volume 300 mL,1.13E+00 mGy/MBq
same,"Radiation dose, unit density sphere model for LNCaP tumors",[2]; sphere/tumor volume 400 mL,8.54E-01 mGy/MBq
same,"Radiation dose, unit density sphere model for LNCaP tumors",[2]; sphere/tumor volume 500 mL,6.85E-01 mGy/MBq
same,"Radiation dose, unit density sphere model for LNCaP tumors",[2]; sphere/tumor volume 600 mL,5.72E-01 mGy/MBq
same,"Radiation dose, unit density sphere model for LNCaP tumors",[2]; sphere/tumor volume 1000 mL,3.45E-01 mGy/MBq
same,"Radiation dose, unit density sphere model for LNCaP tumors",[2]; sphere/tumor volume 2000 mL,1.75E-01 mGy/MBq
same,"Radiation dose, unit density sphere model for LNCaP tumors",[2]; sphere/tumor volume 3000 mL,1.17E-01 mGy/MBq
same,"Radiation dose, unit density sphere model for LNCaP tumors",[2]; sphere/tumor volume 4000 mL,8.86E-02 mGy/MBq
same,"Radiation dose, unit density sphere model for LNCaP tumors",[2]; sphere/tumor volume 5000 mL,7.12E-02 mGy/MBq
same,"Radiation dose, unit density sphere model for LNCaP tumors",[2]; sphere/tumor volume 6000 mL,5.96E-02 mGy/MBq
same,Organ doses,[2]; target organ Brain,1.79E+00 mGy/MBq
same,Organ doses,[2]; target organ Heart,1.90E+00 mGy/MBq
same,Organ doses,[2]; target organ Kidneys,2.23E+02 mGy/MBq
same,Organ doses,[2]; target organ Large intestine,2.42E+00 mGy/MBq
same,Organ doses,[2]; target organ Liver,3.84E+00 mGy/MBq
same,Organ doses,[2]; target organ Lungs,4.46E+00 mGy/MBq
same,Organ doses,[2]; target organ Pancreas,3.60E+00 mGy/MBq
same,Organ doses,[2]; [3],6.89E+00 mGy/MBq
same,Organ doses,[2]; target organ Skeleton,1.25E+00 mGy/MBq
same,Organ doses,[2]; target organ Small intestine,2.08E+00 mGy/MBq
same,Organ doses,[2]; target organ Spleen,1.15E+01 mGy/MBq
same,Organ doses,[2]; target organ Stomach wall,1.51E+00 mGy/MBq
same,Organ doses,[2]; target organ Testes,3.04E+00 mGy/MBq
same,Organ doses,[2]; target organ Thyroid,2.78E+00 mGy/MBq
same,Organ doses,[2]; [4],5.76E+02 mGy/MBq
